Measured values taken from PMC12487890.
These are yes or no findings as the source states them, for the method shown. Binding seen in cells or lysates may run through a third protein. Some results given as binding are weak or reduced against the parent protein; the word gives no strength.

The chains behind the UniProt entries cited, without tags or fusion partners.
UniProt Q01628: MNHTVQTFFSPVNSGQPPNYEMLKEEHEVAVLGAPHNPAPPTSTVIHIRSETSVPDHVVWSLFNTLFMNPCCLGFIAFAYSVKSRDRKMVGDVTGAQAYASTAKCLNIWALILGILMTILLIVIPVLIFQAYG
UniProt P03407: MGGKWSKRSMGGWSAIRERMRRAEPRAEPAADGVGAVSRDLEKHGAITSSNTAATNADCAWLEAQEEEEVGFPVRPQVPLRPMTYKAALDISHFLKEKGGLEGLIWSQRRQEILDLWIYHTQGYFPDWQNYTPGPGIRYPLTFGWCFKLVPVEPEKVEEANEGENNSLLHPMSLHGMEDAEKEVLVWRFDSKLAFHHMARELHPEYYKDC

Tests used:
[1] = target: FLAG-tagged IFITM3 and Myc-tagged IFITM3 (two differently tagged copies) (human) (UniProt Q01628); experiment: co-IP; anti-FLAG (M2) antibody added to 100 μg of whole-cell lysate of HEK293T cotransfected with IFITM3-FLAG and IFITM3-Myc, alone or with 97ZA Nef-HA; Dynabeads Protein G; immunoblot with anti-FLAG and anti-Myc
SF2 Nef-HA (HIV-1) = SF2 Nef-HA (HIV-1) (UniProt P03407); experiment: co-IP; anti-HA antibody added to 100 μg of whole-cell lysate of cotransfected HEK293T (20 mM Hepes, 150 mM NaCl, 1 mM EDTA, 1% Triton X-100), 1 hour at 4°C, Dynabeads Protein G, washed three times with lysis buffer; immunoblot with anti-HA and anti-IFITM3; Nef-HA is the bait

Substance | binding [1] | binding (SF2 Nef-HA (HIV-1))
FLAG-tagged IFITM3 and Myc-tagged IFITM3 (two differently tagged copies) (from UniProt Q01628 1-133) | binds | 
interferon-induced transmembrane protein 3 (IFITM3), human, untagged (from UniProt Q01628 1-133) |  | binds
